This is an account of results in PMC7394560, “Post-replicative pairing of sister ter regions in Escherichia coli involves multiple activities of MatP” (Nature Communications, 2020).

Experiment [1] deals with T1, MatP (Escherichia coli, UniProt P0A8N0 1-150).
T1 sequence: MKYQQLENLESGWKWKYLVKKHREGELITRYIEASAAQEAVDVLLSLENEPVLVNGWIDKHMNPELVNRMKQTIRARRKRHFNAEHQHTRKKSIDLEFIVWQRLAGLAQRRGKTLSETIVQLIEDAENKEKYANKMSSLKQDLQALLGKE
Kind of experiment: native gel or EMSA; matS DNA probe with MatP and added purified ZapB, 3 µM of proteins (Supplementary Fig. 9); 10 mM Tris pH 7.5, 125 mM NaCl, 2.5 mM MgCl2, 0.5 mM DTT, 5% glycerol; 30 °C for 30 min; 5% native TGE-PAGE; both purified. On the technique in general: Mobility shift assays separate free from complexed probe on a gel.

For experiment [2], the target named is T1, MatP. Kind of experiment: condition: ZapB from 2 to 20 μM, MatP from 1 to 6 μM; pull-down; biotinylated DNA on streptavidin magnetic beads plus free DNA; MatP 1 to 6 µM with or without ZapB 2 to 20 µM; RB2 (20 mM Tris pH 7.5, 1 mM MgCl2, 150 mM NaCl, 1 mg/mL BSA), RT; eluted with 0.1% SDS; read by agarose gel (DNAf recovered) and SDS-PAGE with anti-His western blot; both purified.

These are yes or no findings as the source states them, for the method shown.

B1: ZapB (protein, UniProt P0AF36 1-81)
chain: MTMSLEVFEKLEAKVQQAIDTITLLQMEIEELKEKNNSLSQEVQNAQHQREELERENNHLKEQQNGWQERLQALLGRMEEV
With B1, the figures for the binding entry with MatP [1] and with MatP [2] were “no binding (tested: 3 µM of proteins)” and “no binding”, respectively.
